Test results taken from the supplement of paper PMC8728848.
This is one part of the list.

Assays:
Assay in all cases: glycan array binding signal (z-score within array); higher = stronger binding
Details in all cases: glycan notation: IUPAC condensed, linker removed
[1] = molecular target: Gal(b1-3)GlcNAc(b1-2)Man(a1-3)[Gal(b1-3)GlcNAc(b1-2)Man(a1-6)]Man(b1-4)GlcNAc(b1-4)GlcNAc
Outline: (§1)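 Glycan array data came from 3228 arrays in the Consortium for Functional Glycomics database, and only arrays with an available protein sequence were kept. Glycan names were put into IUPAC-condensed notation, and columns mapping to the same glycan were averaged. The binding signal is a within-array Z-score, averaged across arrays of one protein sequence run at different concentrations or buffers and across linkers. A negative Z-score can be read as non-binding.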

[2] = molecular target: Gal(b1-3)GlcNAc(b1-2)Man(a1-3)[Gal(b1-3)GlcNAc(b1-2)Man(a1-6)]Man(b1-4)GlcNAc(b1-4)[Fuc(a1-6)]GlcNAc
Outline: as §1

[3] = molecular target: Gal(b1-3)GlcNAc(b1-2)Man(a1-3)[GlcNAc(b1-4)][Gal(b1-3)GlcNAc(b1-2)Man(a1-6)]Man(b1-4)GlcNAc(b1-4)GlcNAc
Outline: as §1

[4] = molecular target: Gal(b1-3)GlcNAc(b1-2)[Gal(b1-3)GlcNAc(b1-6)]Man(a1-6)[Gal(b1-3)GlcNAc(b1-2)Man(a1-3)]Man(b1-4)GlcNAc(b1-4)GlcNAc
Outline: as §1

[5] = molecular target: Gal(b1-3)GlcNAc(b1-3)Gal(b1-3)GlcNAc
Outline: as §1

[6] = molecular target: Gal(b1-3)GlcNAc(b1-3)Gal(b1-4)Glc
Outline: as §1

[7] = molecular target: Gal(b1-3)GlcNAc(b1-3)Gal(b1-4)GlcNAc
Outline: as §1

[8] = molecular target: Gal(b1-3)GlcNAc(b1-3)Gal(b1-4)GlcNAc(b1-2)Man(a1-3)[Gal(b1-3)GlcNAc(b1-3)Gal(b1-4)GlcNAc(b1-2)Man(a1-6)]Man(b1-4)GlcNAc(b1-4)GlcNAc
Outline: as §1

[9] = molecular target: Gal(b1-3)GlcNAc(b1-3)Gal(b1-4)GlcNAc(b1-2)[Gal(b1-3)GlcNAc(b1-3)Gal(b1-4)GlcNAc(b1-6)]Man(a1-6)[Gal(b1-3)GlcNAc(b1-3)Gal(b1-4)GlcNAc(b1-2)Man(a1-3)]Man(b1-4)GlcNAc(b1-4)[Fuc(a1-6)]GlcNAc
Outline: as §1

[10] = molecular target: Gal(b1-3)GlcNAc(b1-3)Gal(b1-4)GlcNAc(b1-3)Gal(b1-4)GlcNAc(b1-2)[Gal(b1-3)GlcNAc(b1-3)Gal(b1-4)GlcNAc(b1-3)Gal(b1-4)GlcNAc(b1-6)]Man(a1-6)[Gal(b1-3)GlcNAc(b1-3)Gal(b1-4)GlcNAc(b1-3)Gal(b1-4)GlcNAc(b1-2)Man(a1-3)]Man(b1-4)GlcNAc(b1-4)[Fuc(a1-6)]GlcNAc
Outline: as §1

[11] = molecular target: Gal(b1-3)GlcNAc(b1-3)Gal(b1-4)GlcNAc(b1-6)[Gal(b1-3)GlcNAc(b1-3)]Gal(b1-4)Glc
Outline: as §1

[12] = molecular target: Gal(b1-3)GlcNAc(b1-3)Gal(b1-4)[Fuc(a1-3)]GlcNAc
Outline: as §1

[13] = molecular target: Gal(b1-3)GlcNAc(b1-3)Gal(b1-4)[Fuc(a1-3)]GlcNAc(b1-6)[Gal(b1-3)GlcNAc(b1-3)]Gal(b1-4)Glc
Outline: as §1

[14] = molecular target: Gal(b1-3)GlcNAc(b1-3)GalNAc
Outline: as §1

[15] = molecular target: Gal(b1-3)GlcNAc(b1-6)Gal(b1-4)GlcNAc
Outline: as §1

[16] = molecular target: Gal(b1-3)GlcNAc(b1-6)GalNAc
Outline: as §1

[17] = molecular target: Gal(b1-3)GlcNAc(b1-6)[Gal(b1-3)]GalNAc
Outline: as §1

Gal(b1-3)GlcNAc6S = molecular target: Gal(b1-3)GlcNAc6S
Outline: as §1

[18] = molecular target: Gal(b1-3)[Fuc(a1-4)]GlcNAc
Outline: as §1

[19] = molecular target: Gal(b1-3)[Fuc(a1-4)]GlcNAc(b1-2)Man
Outline: as §1

[20] = molecular target: Gal(b1-3)[Fuc(a1-4)]GlcNAc(b1-2)Man(a1-3)[Gal(b1-3)[Fuc(a1-4)]GlcNAc(b1-2)Man(a1-6)]Man(b1-4)GlcNAc(b1-4)[Fuc(a1-6)]GlcNAc
Outline: as §1

[21] = molecular target: Gal(b1-3)[Fuc(a1-4)]GlcNAc(b1-3)Gal(b1-3)[Fuc(a1-4)]GlcNAc
Outline: as §1

B1: FGF1 (Homo sapiens), P05230 (protein)
chain: MAEGEITTFTALTEKFNLPPGNYKKPKLLYSNGGHFLRILPDGTVDGTRDRSDQHIQLQLSAESVGEVYIKSTETGQYLAMTDGLLYGSQTPNEECLFLERLEENHYNTYISKHAEKNWFVGLKKNGSCKRGPRTHYGQAILFLPLPASSED
glycan array binding signal (z-score) [1]: 0.033
glycan array binding signal (z-score) [2]: -0.129
glycan array binding signal (z-score) [3]: 1.57
glycan array binding signal (z-score) [4]: 0.108
glycan array binding signal (z-score) [5]: 0.241
glycan array binding signal (z-score) [6]: 0.08
glycan array binding signal (z-score) [7]: -0.736
glycan array binding signal (z-score) [8]: -0.788
glycan array binding signal (z-score) [9]: -0.334
glycan array binding signal (z-score) [10]: 0.206
glycan array binding signal (z-score) [11]: -0.458
glycan array binding signal (z-score) [12]: -0.1
glycan array binding signal (z-score) [13]: -0.789
glycan array binding signal (z-score) [14]: -0.442
glycan array binding signal (z-score) [15]: -0.55
glycan array binding signal (z-score) [16]: -0.308
glycan array binding signal (z-score) [17]: -0.132
glycan array binding signal (z-score) (Gal(b1-3)GlcNAc6S): -0.515
glycan array binding signal (z-score) [18]: -0.355
glycan array binding signal (z-score) [19]: 3.59
glycan array binding signal (z-score) [20]: 3.02
glycan array binding signal (z-score) [21]: -0.75
